Results are given in words; binding and its absence hold for the method and conditions named. In cells and extracts the contact can be indirect. Some entries that bind do so weakly or less than the wild type.
Tests used:
[1] = target: T-E39 (not stated | HIV-1) (UniProt P01589); assay: co-IP; HeLa cells co-transfected with a Tac chimeric construct and the δ chain of the CD3 receptor fused to β-galactosidase; Tac protein immunoprecipitated from the lysate with protein A-agarose beads coated with 7G7 antibodies; co-precipitated β-galactosidase activity revealed with Chlorophenol Red-β-D-galactopyranoside (absorbance at 600 nm), percentage of β-galactosidase immunoprecipitated
[2] = target: T-E26 (not stated | HIV-1) (UniProt P01589); assay: as above

Sequences of proteins named here, by UniProt entry; tags and fusion partners are left off. A change or cut given only in a name is not applied to a line headed by its entry. A line that says so, or that is headed by a name, gives the form on record, which may keep a tag or linker. Residues count along the entry.
T-E39 (P01589, form named): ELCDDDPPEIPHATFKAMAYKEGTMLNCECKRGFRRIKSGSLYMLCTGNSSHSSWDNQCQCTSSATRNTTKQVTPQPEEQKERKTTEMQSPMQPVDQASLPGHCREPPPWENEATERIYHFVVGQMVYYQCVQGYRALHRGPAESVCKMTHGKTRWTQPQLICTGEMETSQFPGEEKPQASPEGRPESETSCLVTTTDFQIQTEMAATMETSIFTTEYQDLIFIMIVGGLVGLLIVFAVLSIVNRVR
T-E26 (P01589, form named): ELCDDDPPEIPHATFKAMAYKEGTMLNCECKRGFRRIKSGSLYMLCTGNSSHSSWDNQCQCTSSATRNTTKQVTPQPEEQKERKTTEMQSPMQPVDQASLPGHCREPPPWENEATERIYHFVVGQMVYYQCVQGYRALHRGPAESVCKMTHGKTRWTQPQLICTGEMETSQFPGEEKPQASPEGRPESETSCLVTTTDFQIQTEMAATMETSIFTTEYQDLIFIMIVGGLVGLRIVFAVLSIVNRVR
UniProt P04234, residues 22-171: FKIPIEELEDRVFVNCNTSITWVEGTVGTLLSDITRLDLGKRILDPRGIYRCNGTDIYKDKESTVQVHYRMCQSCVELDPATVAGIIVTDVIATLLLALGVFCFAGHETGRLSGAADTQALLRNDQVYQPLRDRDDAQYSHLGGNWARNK

“δ chain of the CD3 receptor fused to the β-galactosidase (from UniProt P04234 22-171)” was tested, and the binding [1] was “no binding” and the binding [2] was “binds”.
